Reference: publication doi:10.1101/834465

Target: LSM1 decapping factor, YFP fusion (Arabidopsis)
Test: co-IP

B1: PAT1 (Protein Associated with Topoisomerase II), HA fusion (protein, UniProt Q0WPK4 1-793)
chain: MDAFGIGSSLNQAPVTQDLKKFGDNSTGNTMFDASQYAFFGNDVVEEVELGGLEEEDEILSFTGIAEDFSFDKEEVGDSRLLSDVDDLASTFSKLNREPDVYSNTGPITDRRSSQNSLAAEWTHGEELPNWYGRQILDSDAIKDDKVWSAQPFSSLDRVEQRIPDRTKLYPEPQRQLHQDHNQQQFSSEPILVPKSSFVSYPPPGSISPDQRLGHPNIPYQSGGPQMGSPNFSPFPNLQPQLPSMHHGSPQHTGNRPQFRPALPLNNLPPAQWMNRQNMHPGDSSGIMNNAMLQQPPHQNGLMPPQMQGSQNRLPHPMQPPLGHMPGMQPQLFNSHLSRSSSSGNYDGMLGFGDLREVRPGSGHGNRQNVRFPQQGFDAGVQRRYPFRSKYMSAGEIENILRMQLVATHSNDPYVDDYYHQACLAKKSAGAKLKHHFCPNHLRDLQQRARSNNEPHAFLQVEALGRVPFSSIRRPRPLLEVDPPNSAKFGNAEHKPTDKPLDQEPMLAARVYIEDGLCLLLEVDDIDRFLEFNQLQDGGHQLKQRRQALLQSLAVSLQLGDPLAKNGQSQSLDDFLFLRVISLPKGRKLLIRYLQLIFPGSDLMRIVCMAIFRHLRSLFGVLSSDPDIIKTTNKLATVINLCIQNMELGPVSTCLAAVSCSSEQAPLRPLGSPVGDGASTVLKSILDRASELIRANNFNNAGIALWRASFNEFFNMLMRYCISKYDSIMQSLQLPPHFATEISEEAAKAIVREMPIELLRSSFPHIDEQQKRILMEFLKRSMLGSQKTEPVLS
With B1 the binding was “binds”.

Results are given in words; binding and its absence hold for the method and conditions named. Binding seen in cells or lysates may run through a third protein. Binding calls can cover weak binding; strength is not graded here. Tags and fused reporters may be left off the sequences shown.
